Measured values: PubChem BioAssay AID2685 (National Center for Advancing Translational Sciences (NCATS), 2010)
The other results are listed elsewhere or left out. These are further read-outs of the screen, such as a control signal, another cell line or another target. No call is given for them. Most of these compounds were active or inconclusive in the main read-out, so they are no random draw. Potencies come from curve fits of mixed quality, noted in brackets.

Assay: qHTS Assay for Lipid Storage Modulators in Drosophila S3 Cells;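 on cell number change: cells counted by Cell Tracker Red CMTPX staining in the red channel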
Details: BODIPY lipid droplet fluorescence, 18-24 h; for cell number change: measured here: cell count max response, cells fed with added oleic acid
Outline: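 Laser-scanning cytometry quantifies lipid droplet accumulation (500–530 nm total intensity; droplet/cell object ratio) in oleic acid-fed (400 uM added) Drosophila S3 cells treated with a concentration series. 20 uM Triacsin C defined 100% inhibition.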

[1] = measured here: lipid fluorescence (Fed channel) AC50, cells fed with added oleic acid
[2] = measured here: cell number channel AC50, cells fed with added oleic acid

| Structure (SMILES) | cell number change | AC50 [1] | AC50 [2] |
| --- | --- | --- | --- |
| COc1cc(C(=S)N2CCN(c3ccccc3Cl)CC2)cc(O)c1O | -28.7% | 20.6 µM [falling, single point] |  |
| N#Cc1c2c(c(NCCCN3CCOCC3)n3c1nc1ccccc13)CCC2 | 56.7% |  |  |
| Cc1cccc(N(Cc2ccccc2)C(=O)c2ccccc2F)c1 | 4.03% |  |  |
| O=C1CCN(c2ccc([N+](=O)[O-])cc2F)CC1 | -6.13% | 2.06 µM [falling, single point] |  |
| COc1cc(NS(=O)(=O)c2ccc(Nc3nc(-c4cccc([N+](=O)[O-])c4)cs3)cc2)nc(OC)n1 | -33.8% | 29.1 µM [falling, partial curve] | 32.6 µM [falling, single point] |
| Cc1[nH]c2ccccc2c1/C=N/Nc1ccccn1 |  |  | 0.116 µM [rising, single point] |
| O=C(CSc1nc2ccccc2c(=O)n1-c1cccc(C(F)(F)F)c1)NC1CC1 |  |  | 1.64 µM [rising, partial curve] |
| C=CCNC(=S)N/N=C/c1ccc(C)cc1C | 26.2% | 0.092 µM [rising, full curve] |  |
| N/C(=N\OC(=O)Cc1ccccc1)c1ccc([N+](=O)[O-])cc1 | 1.22% |  | 0.13 µM [rising, full curve, poor fit] |
| Nc1c(C(=O)c2cccs2)sc2nsc(SCCN3CCCCC3)c12 |  | 32.6 µM [falling, single point] |  |
| COc1ccc(S(=O)(=O)Nc2ccc3cn[nH]c3c2)cc1[N+](=O)[O-] | 6.92% | 3.66 µM [falling, full curve] |  |
| CC(C)(C)NC(=O)CSc1nc2ccc(NC(=O)CSc3nnnn3Cc3ccccc3)cc2s1 | -38.2% | 14.6 µM [falling, single point] | 11.6 µM [falling, single point] |
| O=C(CSc1ccc(-c2ccco2)nn1)c1cccc([N+](=O)[O-])c1 |  | 0.58 µM [rising, single point] | 0.731 µM [rising, single point] |
| O=C(Nc1ccc(Cl)c(S(=O)(=O)N2CCOCC2)c1)c1n[nH]c(=O)c2ccccc12 | 6.84% | 0.058 µM [rising, partial curve] |  |
| Cc1cccnc1NC(=O)c1cccc(S(=O)(=O)N2CCN(c3ccccc3)CC2)c1 | 19% |  |  |
| CCn1ccnc1C(O)c1cccc2ccccc12 (centres undefined) | -5.61% | 0.00461 µM [rising, full curve, poor fit] |  |
| O=C(CC1SC(=Nc2ccccc2)N(CCc2c[nH]c3ccccc23)C1=O)Nc1ccccc1F (centres undefined) | 1.1% | 5.8 µM [rising, single point] | 5.8 µM [rising, single point] |
| Cc1cc(OCC(=O)NCC2CCC(C(=O)O)CC2)c2c(C)c(Cc3ccccc3)c(=O)oc2c1 (centres undefined) | 0.45% | 0.58 µM [falling, partial curve, poor fit] |  |
| COc1cc(OC)cc(C(=O)NCC(=O)OCC(=O)c2cc(OC)ccc2OC)c1 |  | 16.4 µM [falling, partial curve, poor fit] |  |
| CCCCn1c(SCC(N)=O)nnc1-c1cc(OC)c(OC)c(OC)c1 | 20.1% | 8.2 µM [falling, partial curve, poor fit] | 0.651 µM [falling, full curve, poor fit] |

| Structure (SMILES) | cell number change | AC50 [1] | AC50 [2] |
| --- | --- | --- | --- |
| O=C(CCl)NCCN1C(=O)S/C(=C\c2cccnc2)C1=O | 16.5% | 20.6 µM [rising, single point] |  |
| Clc1ccc(CSc2ncn[nH]2)cc1 | -10.3% |  |  |
| Cn1c(SCC(=O)N2CCCC2)nnc1-c1ccc(S(=O)(=O)N2CCCC2)cc1 | 0.196% | 3.26 µM [falling, single point] |  |
| Fc1ccc(N2CCN(Cc3ccccn3)CC2)cc1 | -3.66% | 0.58 µM [rising, single point] |  |
| CC1CCCCC1NC(=O)COc1ccc(-n2cnnn2)cc1 (centres undefined) |  | 6.51 µM [rising, single point] |  |
| CC1CCCN(c2nc3ccsc3c(=O)s2)C1 (centres undefined) |  |  | 6.51 µM [rising, single point] |
| Cc1cccc(NC(=O)c2cnc3ccccn3c2=O)c1 |  | 0.731 µM [rising, full curve] | 0.92 µM [rising, full curve] |
| CCCCC(=O)NC(c1ccc(C(C)C)cc1)c1ccc2cccnc2c1O (centres undefined) |  | 14.6 µM [falling, partial curve] |  |
| COc1cc2c(cc1OC)C(c1c(Cl)cccc1Cl)NC(=O)C2 (centres undefined) | 26.7% |  |  |
| CCC(Sc1nc2n[nH]c(C)c2c(=N)n1-c1cccc(Cl)c1C)C(=O)N(CC)CC (centres undefined) | -35.9% |  | 9.2 µM [falling, partial curve] |
| C=C(C)C(=O)OCC(C)C | 23% | 1.16 µM [falling, single point] | 0.651 µM [falling, single point] |
| O=C(NCC(c1cccs1)N1CCOCC1)c1ccc(Cl)nc1 (centres undefined) | 4.93% | 29.1 µM [rising, single point] |  |
| O=C(NC1CCCCC1)c1cccnc1Sc1ccccc1Cl | 13.5% | 6.51 µM [rising, single point] |  |
| COC(=O)c1nn(-c2cccc(Cl)c2)ccc1=O | -20.2% |  |  |
| COC(=O)c1cnc(SCc2ccc(Cl)cc2)n1C | 20.7% | 1.3 µM [falling, full curve] | 1.46 µM [falling, partial curve] |
| Cc1c(NC(=O)c2cccc(NC(=O)c3ccco3)c2)cccc1C(=O)O | -23.9% | 29.1 µM [falling, single point] |  |
| CCOc1ccccc1NC(=S)N1CCN(c2ccccc2)CC1 | -34.1% | 10.3 µM [falling, partial curve] | 13 µM [falling, single point] |
| O=C(Nc1ccc(S(=O)(=O)Nc2ncccn2)cc1)c1ccc(Cl)c([N+](=O)[O-])c1 | -6.59% | 23.1 µM [rising, single point] |  |
| CCCCn1c(=N)n(CC(O)COc2ccc(C)cc2)c2ccccc21 (centres undefined) | -37.5% | 25.9 µM [falling, single point] | 18.4 µM [falling, single point] |
| NCCNc1ccc([N+](=O)[O-])c(NC2CC2)c1 |  | 29.1 µM [rising, single point] | 0.0058 µM [falling, full curve, poor fit] |

One compound at a time, as listed above.
N#Cc1c2c(c(NCCCN3CCOCC3)n3c1nc1ccccc13)CCC2 is listed as cell number change: 56.7%
C=C(C)C(=O)OCC(C)C is listed as cell number change: 23%; AC50 [1]: 1.16 µM [falling, single point]; AC50 [2]: 0.651 µM [falling, single point]
NCCNc1ccc([N+](=O)[O-])c(NC2CC2)c1 is listed as AC50 [1]: 29.1 µM [rising, single point]; AC50 [2]: 0.0058 µM [falling, full curve, poor fit]

Next records follow:

| Structure (SMILES) | cell number change | AC50 [1] | AC50 [2] |
| --- | --- | --- | --- |
| COc1ccc(S(=O)(=O)NC2CCCC2)c(Cl)c1Cl | -9.64% |  | 0.731 µM [falling, full curve] |
| O=C(/C=C/c1ccc(-c2ccccc2[N+](=O)[O-])o1)c1ccccc1 | -47.4% | 1.84 µM [falling, partial curve] | 29.1 µM [falling, single point] |
| O=C(N/N=C/c1ccc(O)c(O)c1)N/N=C/c1ccc(O)c(O)c1 | -10.5% |  |  |
| O=C(Nc1ccnn1C1CCN(Cc2cccc(OCCO)c2)CC1)c1cccc(F)c1 | -7.43% | 29.1 µM [rising, single point] | 0.0731 µM [rising, full curve, poor fit] |
| CC(=O)Nc1ccc(N(C(=O)Cc2cccs2)C(C(=O)NC2CCCC2)c2ccncc2)cc1 (centres undefined) | -26.9% | 0.116 µM [rising, single point] |  |
| C[C@@H](O)C1NC(=O)[C@H](CCCCN)NC(=O)c2cc([N+](=O)[O-])cc(F)c2NCCCC[C@@H](C(N)=O)NC1=O (some centres undefined) | 51.4% | 6.51 µM [rising, partial curve] | 5.8 µM [rising, partial curve] |
| Cc1ccc(C(=O)OCC(=O)Nc2sccc2C(N)=O)cc1NC(=O)c1ccco1 | 10.7% |  | 1.84 µM [rising, partial curve] |
| CCOC(=O)C1=C(C)NC(=O)NC1c1ccc(N2CCC(c3ccccc3)=N2)cc1 (centres undefined) | 4.16% | 20.6 µM [falling, partial curve, poor fit] |  |
| O=S(=O)(c1ccc(-c2csc(-c3cccnc3)n2)cc1)N1CCCC1 | -24.8% | 1.03 µM [rising, full curve] |  |
| C/C(CCc1ccccc1)=N\NC(=O)CCc1ccccc1 | -7.86% | 11.6 µM [rising, partial curve] | 6.51 µM [falling, single point] |
| CCOC(=O)c1[nH]c(C)c(CN(Cc2ccco2)C(=O)C(F)(F)F)c1C | -22.7% | 29.1 µM [falling, single point] |  |
| Cc1ccc(C(=O)Oc2coc(CSc3nnc(NC(=O)C4CC4)s3)cc2=O)cc1 |  | 0.259 µM [rising, full curve, poor fit] |  |
| CCN(CC)c1ccc(/C=C2\SC(N)=NC2=O)cc1 | 6.88% |  |  |
| O=C(NC1CCSc2ccccc21)c1cccc(Cl)c1 (centres undefined) | 12.4% | 29.1 µM [falling, single point] |  |
| CCN(CC)S(=O)(=O)c1ccc(C(=O)NCCSc2c[nH]c3ccccc23)cc1 |  |  | 0.58 µM [rising, single point] |
| CCOC(=O)c1ccc(NC(=O)N2CCOCC2)cc1 | -22.4% |  |  |
| CC1(C)CC(=O)C2=C(C1)NC(Nc1nc3ccccc3o1)=NC21CCCC1 | -120% | 29.1 µM [falling, partial curve] | 25.9 µM [falling, partial curve] |
| Cc1ccccc1-n1ncc2c1CC(C)(C)CC2NC(=O)CCn1cncn1 (centres undefined) | 16.6% |  |  |
| O=C1CCC(C(=O)OCc2ccccc2)N1 (centres undefined) | 3.29% | 0.13 µM [falling, full curve] |  |
| CCOC(=O)c1c(C)nc2c(c1-c1ccccc1)C(=O)c1ccccc1-2 | -25.7% | 0.58 µM [falling, single point] |  |

3 entries from above, ordered by SMILES length, ascending:

| Structure (SMILES) | cell number change | AC50 [1] | AC50 [2] |
| --- | --- | --- | --- |
| O=C1CCC(C(=O)OCc2ccccc2)N1 (centres undefined) | 3.29% | 0.13 µM [falling, full curve] |  |
| O=C(NC1CCSc2ccccc21)c1cccc(Cl)c1 (centres undefined) | 12.4% | 29.1 µM [falling, single point] |  |
| CCN(CC)S(=O)(=O)c1ccc(C(=O)NCCSc2c[nH]c3ccccc23)cc1 |  |  | 0.58 µM [rising, single point] |
